Data taken from patent US20060177440A1.
Results are given in words; binding and its absence hold for the method and conditions named. Some binding calls cover weakened binding; strength is not graded here.

Chains of the proteins cited; added tags and fusions are not shown. Residues count along the entry.
UniProt Q02161, residues 2-417: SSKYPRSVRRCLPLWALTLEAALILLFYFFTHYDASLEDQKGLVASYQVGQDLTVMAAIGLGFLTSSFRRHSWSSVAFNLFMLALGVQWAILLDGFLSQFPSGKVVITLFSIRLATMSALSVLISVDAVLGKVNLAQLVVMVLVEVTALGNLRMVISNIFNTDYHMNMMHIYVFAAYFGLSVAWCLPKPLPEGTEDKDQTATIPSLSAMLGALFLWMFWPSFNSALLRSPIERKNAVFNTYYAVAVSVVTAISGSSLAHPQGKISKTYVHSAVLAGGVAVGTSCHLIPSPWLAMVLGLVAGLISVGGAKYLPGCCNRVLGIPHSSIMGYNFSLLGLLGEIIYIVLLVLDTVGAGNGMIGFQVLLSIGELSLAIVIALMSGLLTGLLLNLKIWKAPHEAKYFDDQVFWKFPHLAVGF

Biological target: human Rh(D) antigen (human) (UniProt Q02161)
Experiment: Fab/phage agglutination (anti-M13)

B1: SH36 (Fab, V domains shown)
VH: EVQLLESGGGVVQPGRSLRLSCEASKFTLYNYGMHWVRQAPGKGLEWVAFIWFDGSNKYYEDSVKGRFTVSRDNSKNTLYLQMNSLRAEDTAVYYCAREGSKKVALSRYYYYMDVWGQGTTVTVSS
VL: AELTQSPSSLSASVGDRVTITCRASQSISSYLNWYQQKPGKSPKLLIYAASSLQSGVPSRFSGSGSGTDFTLTISSLQPEDFATYYCQQSYSTPPAFGPGTKVDIKR
For B1, the binding was “binds”.
